± gives the standard deviation of the averaged measurements. Whole data set: some 1,600 compounds, median “normalized intracellular growth (luminescence, IQM-normalized) in RAW264.7 macrophages” near 1, cut for the lowest 2% near 0.43. Some of the results follow.
System: Salmonella enterica serovar Typhimurium SL1344
Assay: normalized intracellular growth (luminescence, IQM-normalized) in RAW264.7 macrophages (fraction of plate interquartile mean); higher = more bacterial growth (less inhibition)
Settings: 10 µM

SMILES	normalized intracellular growth (time point: T3 (3 h))	normalized intracellular growth (time point: Tfinal (~6 h))
Clc1ccc2c(c1)CCc1cccnc1C2=C1CCNCC1	0.844 ± 0.026	0.834 ± 0.017
CCCOc1ccc2[nH]c(NC(=O)OC)nc2c1	0.865 ± 0.032	1.12 ± 0.35
Cc1cc2nc3c(=O)[nH]c(=O)nc-3n(C[C@H](O)[C@H](O)[C@H](O)CO)c2cc1C	1.03 ± 0.025	1.03 ± 0.078
O=C(c1ccc(F)cc1)C1CCN(CCn2c(=O)[nH]c3ccccc3c2=O)CC1	1.01 ± 0.061	0.869 ± 0.2
CCN(CC)C(=O)c1ccc(O)c(OC)c1	1.12 ± 0.067	1.03 ± 0.27
CC(=O)[C@@]1(O)CC[C@H]2[C@@H]3CCC4=CC(=O)CC[C@]4(C)[C@H]3CC[C@@]21C	0.923 ± 0.017	0.905 ± 0.15
O=C1CC[C@@H](C(=O)N2CSC[C@H]2C(=O)O)N1	1 ± 0.018	1.06 ± 0.07
c1ccc(-c2ccc(C(c3ccccc3)n3ccnc3)cc2)cc1 (stereo unspecified)	0.897 ± 0.075	0.799 ± 0.21
Oc1c(Cl)cc(Cl)c2cccnc12	1.04 ± 0.025	0.951 ± 0.089
CN(C)CCC(c1ccc(Br)cc1)c1ccccn1 (stereo unspecified)	1 ± 0.056	0.955 ± 0.56
N#Cc1ccc2c(c1)N(CCCN1CCC(O)CC1)c1ccccc1S2	1.04 ± 0.014	0.869 ± 0.15
Nc1ncnc2c1ncn2[C@@H]1O[C@H](CO)[C@@H](O)[C@@H]1O	1.06 ± 0.061	1.04 ± 0.093
CCCCC(CC)COC(=O)CC(C(=O)OCC(CC)CCCC)S(=O)(=O)O (stereo unspecified)	0.943 ± 0.069	0.958 ± 0.027
C[C@H]1C[C@H]2[C@@H]3CCC4=CC(=O)C=C[C@]4(C)[C@@]3(F)[C@@H](O)C[C@]2(C)[C@@]1(O)C(=O)COP(=O)(O)O	0.947 ± 0.011	1.09 ± 0.058
CC[C@H](C)[C@H](N)C(=O)O	1.06 ± 0.055	0.898 ± 0.2
C[C@@](Cc1ccc(O)c(O)c1)(NN)C(=O)O	0.965 ± 0.038	0.861 ± 0.058
CCOc1nc2cccc(C(=O)O)c2n1Cc1ccc(-c2ccccc2-c2nnn[nH]2)cc1	0.992 ± 0.057	1.04 ± 0.034
Cn1c(=O)c2c(ncn2CC2OCCO2)n(C)c1=O	1.01 ± 0.079	0.998 ± 0.15
CC(=O)N(CC(O)CO)c1c(I)c(C(=O)NCCO)c(I)c(C(=O)NCC(O)CO)c1I (stereo unspecified)	0.938 ± 0.063	1.17 ± 0.091
CN1CCN(CC(=O)N2c3ccccc3C(=O)Nc3cccnc32)CC1	1.05 ± 0.044	1.04 ± 0.095
COC(=O)Nc1nc2cc(Sc3ccccc3)ccc2[nH]1	0.906 ± 0.046	0.889 ± 0.035
CC(=O)N(CC(O)CO)c1c(I)c(C(=O)NCC(O)CO)c(I)c(C(=O)NCC(O)CO)c1I (stereo unspecified)	1.05 ± 0.014	1.08 ± 0.18

A second format for part of the listing above:

| SMILES | normalized intracellular growth (time point: T3 (3 h)) | normalized intracellular growth (time point: Tfinal (~6 h)) |
| --- | --- | --- |
| C[C@H]1C[C@H]2[C@@H]3CCC4=CC(=O)C=C[C@]4(C)[C@@]3(F)[C@@H](O)C[C@]2(C)[C@@]1(O)C(=O)COP(=O)(O)O | 0.947 ± 0.011 | 1.09 ± 0.058 |
| CC[C@H](C)[C@H](N)C(=O)O | 1.06 ± 0.055 | 0.898 ± 0.2 |

Remaining list, next part:

SMILES	normalized intracellular growth (time point: T3 (3 h))	normalized intracellular growth (time point: Tfinal (~6 h))
CC(C)NCC(O)COc1ccc(CC(N)=O)cc1 (stereo unspecified)	0.998 ± 0.14	1.06 ± 0.16
CC(C)Cn1cnc2c(N)nc3ccccc3c21	0.98 ± 0.018	1.02 ± 0.02
CC(=O)OCC(=O)[C@@]1(O)[C@H](OC(C)=O)C[C@H]2[C@@H]3CCC4=CC(=O)C=C[C@]4(C)[C@@]3(F)[C@@H](O)C[C@@]21C	0.823 ± 0.07	1.2 ± 0.034
NC(=O)N1c2ccccc2CC(=O)c2ccccc21	1.09 ± 0.075	1.22 ± 0.13
O=C(O)CCCC[C@@H]1CCSS1	1.06 ± 0.032	1.16 ± 0.12
Cc1cccc(Nc2ccncc2S(=O)(=O)NC(=O)NC(C)C)c1	0.937 ± 0.054	0.843 ± 0.1
O=C1N=C(O)NC1(c1ccccc1)c1ccccc1	0.986 ± 0.025	1.05 ± 0.47
CN(C)c1cc(NC(=O)CNC(C)(C)C)c(O)c2c1C[C@H]1C[C@H]3[C@H](N(C)C)C(O)=C(C(N)=O)C(=O)[C@@]3(O)C(O)=C1C2=O	1.01 ± 0.05	1.02 ± 0.18
CC[N+](CC)(CC(=O)Nc1c(C)cccc1C)Cc1ccccc1	0.988 ± 0.034	0.657 ± 0.16
COc1cc(NS(=O)(=O)c2ccc(N)cc2)nc(OC)n1	0.9915 ± 0.0078	1.02 ± 0.081
CC1(C)O[C@@H]2[C@@H](CO[C@@]3(COS(N)(=O)=O)OC(C)(C)O[C@@H]23)O1	1.02 ± 0.039	1.1 ± 0.043
S=c1[nH]cnc2nc[nH]c12	0.96 ± 0.029	0.522 ± 0.081
CCCCCCCCNC(C)C(O)c1ccc(SC(C)C)cc1 (stereo unspecified)	0.718 ± 0.18	0.895 ± 0.057
C[C@H]1O[C@@H](O[C@H]2[C@@H](O)C[C@H](O[C@H]3[C@@H](O)C[C@H](O[C@H]4CC[C@@]5(C)[C@H](CC[C@@H]6[C@@H]5CC[C@]5(C)[C@@H](C7=CC(=O)OC7)CC[C@]65O)C4)O[C@@H]3C)O[C@@H]2C)C[C@H](O)[C@@H]1O	1.03 ± 0.042	1.08 ± 0.087
CC(=O)CC(c1ccc([N+](=O)[O-])cc1)c1c(O)c2ccccc2oc1=O (stereo unspecified)	1.03 ± 0.023	1.02 ± 0.23
CC1(C)S[C@@H]2[C@H](NC(=O)COc3ccccc3)C(=O)N2[C@H]1C(=O)O	0.797 ± 0.064	1.19 ± 0.11
CCCC(=O)O[C@]1(C(=O)CO)CC[C@H]2[C@@H]3CCC4=CC(=O)CC[C@]4(C)[C@H]3[C@@H](O)C[C@@]21C	1.03 ± 0.025	0.928 ± 0.28
COc1ccc2c3c1O[C@H]1C[C@@H](O)C=C[C@@]31CCN(C)C2	1.02 ± 0.024	1.02 ± 0.044
Cc1nnc(SCC2=C(C(=O)O)N3C(=O)[C@@H](NC(=O)Cn4cnnn4)[C@H]3SC2)s1	1.09 ± 0.087	1.2 ± 0.074
CC(C)NC(=N)NC(=N)Nc1ccc(Cl)cc1	0.664 ± 0.018	0.164 ± 0.01
CC1(C)[C@@H](O)CC[C@]2(C)[C@H]3C(=O)C=C4[C@@H]5C[C@@](C)(C(=O)O)CC[C@]5(C)CC[C@@]4(C)[C@]3(C)CC[C@@H]12	0.954 ± 0.025	0.762 ± 0.1

Reference: the supplement of paper PMC6331611
